Assay type in all cases: cell-based
In experiment [1] the test system is Bacillus subtilis ATCC9372. The method, then:
(§1) A minimum inhibitory concentration (MIC) assay was carried to investigate the lowest concentration of CHG, CPC, and a combination thereof, that inhibits the visible growth of Staphyloccocus aureus, Bacillus subtilis and Candida albicans after 48-hour incubation using broth microdilution.
(§2) Briefly, CHG, CPC, or a combination thereof was dissolved in distill water at different concentrations as indicated below (initial concentrations):
(§3) CHG+CPC: 5 g/L (CHG) and 0.5 g/L (CPC)
CHG, CPC, and CHG+CPC having the above-noted concentrations were diluted to fold serial dilutions with distill water. 2.5 ml of CHG, CPC, or CHG+CPC were mixed with 2.5 ml of broth comprising growth media, such as Mueller-Hinton Broth (MHB), to obtain 10-, 100-, 1,000-, 2,000-, 4,000-, 8,000-, 16,000-, or 32,000-concentration dilution. Staphyloccocus aureus strain ATCC 6538, Bacillus subtilis ATCC9372 or Candida albicans ATCC10231 each (0.1 ml of a bacterial suspension having 10^8 cfu/ml bacteria) were inoculated into the mixture. A broth inoculated with the same microorganisms and having no CHG and CPC was used as a positive control and a broth having CHG and/or CPC but no microorganisms was used as a blank control. […] The concentration of bacterial cells in each test tube was measured. The inhibitory rates were calculated as below: […]

Experiment [2] concerns Staphylococcus aureus ATCC6538. Briefly: Broth microdilution inhibitory rate (MIC assay) against Staphylococcus aureus. Particulars: ATCC6538, CHG-5, 48 h. How it is done: as §1, §2, §3
(§4) CHG, CPC, and CHG+CPC having the above-noted concentrations were diluted to fold serial dilutions with distill water. 2.5 ml of CHG, CPC, or CHG+CPC were mixed with 2.5 ml of broth comprising growth media, such as Mueller-Hinton Broth (MHB), to obtain 10-, 100-, 1,000-, 2,000-, 4,000-, 8,000-, 16,000-, or 32,000-concentration dilution. Staphyloccocus aureus strain ATCC 6538, Bacillus subtilis ATCC9372 or Candida albicans ATCC10231 each (0.1 ml of a bacterial suspension having 10^8 cfu/ml bacteria) were inoculated into the mixture. A broth inoculated with the same microorganisms and having no CHG and CPC was used as a positive control and a broth having CHG and/or CPC but no microorganisms was used as a blank control. Test tubes containing the mixtures were placed in a 37° C. incubator and incubated for 48 hours. The concentration of bacterial cells in each test tube was measured. The inhibitory rates were calculated as below:
(§5) [(Positive control average colony count−Test average colony count)/Positive control average colony count]×100%
(§6) Positive controls are the tubes having broth and microorganisms but no antimicrobial agents.

The subject of experiment [3] is Candida albicans ATCC10231. In words: Broth microdilution inhibitory rate (MIC assay) against Candida albicans. The following applies: ATCC10231, CHG-5, 48 h. How it is done:
as §1, §2, §3, §4, §5, §6
(In general: In broth dilution the organism is exposed to a series of concentrations in liquid medium.)

Setting [4] is: read-out: Anti-microbial activity (inhibitory rate), dilution 1* of initial concentration (CHG 5 g/L, CPC 0.5 g/L), 37° C.
[5] abbreviates: read-out: Anti-microbial activity (inhibitory rate), dilution 1/10 of initial concentration (CHG 5 g/L, CPC 0.5 g/L).
[6] abbreviates: read-out: Anti-microbial activity (inhibitory rate), dilution 1/100 of initial concentration (CHG 5 g/L, CPC 0.5 g/L).
The mark [7] stands for this setting: read-out: Anti-microbial activity (inhibitory rate), dilution 1/1000 of initial concentration (CHG 5 g/L, CPC 0.5 g/L).
The mark [8] stands for this setting: read-out: Anti-microbial activity (inhibitory rate), dilution 1/2000 of initial concentration (CHG 5 g/L, CPC 0.5 g/L).
[9] abbreviates: read-out: Anti-microbial activity (inhibitory rate), dilution 1/4000 of initial concentration (CHG 5 g/L, CPC 0.5 g/L).

Values joined by “and” are separate entries in the source; they are usually repeats but may differ in a detail not shown here. Equal values may be shown once. Read-outs that look alike come from different tables or passages of the source.

On to `CCCCCCCCCCCCCCCC[n+]1ccccc1` [CPC, cetylpyridinium chloride], for which the “Anti-microbial activity (inhibitory rate)” value in experiment [1] was 97.73% and 96.45% and 96.25% and 93.00% and 90.05% and 62.50% and 100%. Besides, the inhibition at 500 µg/mL in experiment [2] (setting [4]) is 100%; in experiment [2] (setting [5]), 100%; in experiment [2] (setting [6]), 100%; in experiment [2] (setting [7]), 100%; in experiment [2] (setting [8]), 98.5%; in experiment [2] (setting [9]) it was 36.3%. In addition, the inhibition at 500 µg/mL was found to be 24.5% in experiment [2] (read-out: Anti-microbial activity (inhibitory rate), dilution 1/8000 of initial concentration (CHG 5 g/L, CPC 0.5 g/L)); 100% in experiment [3] (setting [4]); 100% in experiment [3] (setting [5]); 99.9% in experiment [3] (setting [6]); 91.4% in experiment [3] (setting [7]); 89.4% in experiment [3] (setting [8]). In addition, in experiment [3] (setting [9]), the inhibition at 500 µg/mL is 45.9%.

(Values after patent US20170100383A1, “TOPICAL FORMULATIONS FOR PREVENTING SKIN INFECTION” (Practical Solution, Inc., priority 2015, published 2017).)
